Measured values: the supplement of paper PMC3682954
Values joined by “and” are separate entries in the source; they are usually repeats but may differ in a detail not shown here. Equal values may be shown once. Where a name gives a salt, the structure may show the parent alone. ± gives the standard deviation of the averaged measurements. The list shows a part of the results. Repeats are few or missing, and single values can be far off.

Test system: RAW 264.7
Assay: cell viability (MTT) relative to vehicle control; higher = more viable cells
Details: stimulus: HMGB1 5 ug/ml, 18 h
[1] = compound concentration: 1 ug/ml

Structure (SMILES)	cell viability (compound concentration: 3 uM)	cell viability [1]
CN1[C@@H]2C[C@@H](OC(=O)[C@H](CO)c3ccccc3)C[C@H]1[C@@H]1O[C@@H]12 [Scopolamine]	103%	–
CN1[C@@H]2C[C@@H](OC(=O)[C@H](CO)c3ccccc3)C[C@H]1[C@@H]1O[C@@H]12 [Scopolamine hydrochloride]	112%	–
CN1[C@@H]2C[C@@H](OC(=O)[C@H](CO)c3ccccc3)C[C@H]1[C@@H]1O[C@@H]12	116%	–
CN1[C@@H]2C[C@@H](OC(=O)[C@H](CO)c3ccccc3)C[C@H]1[C@@H]1O[C@@H]12 [(-)-Scopolamine hydrobromide]	119%	–
C#C[C@]1(O)CC[C@H]2[C@@H]3CCC4=CC(=O)CCC4=C3C=C[C@@]21CC [Gestrinone]	108 ± 1.3%	–
CN[C@@H](C)[C@@H](O)c1ccccc1	104%	–
CN1C[C@H](C(=O)N[C@]2(C)O[C@@]3(O)[C@@H]4CCCN4C(=O)[C@H](Cc4ccccc4)N3C2=O)C=C2c3cccc4[nH]cc(c34)C[C@H]21	106%	–
CN1C[C@H](C(=O)N[C@]2(C)O[C@@]3(O)[C@@H]4CCCN4C(=O)[C@H](Cc4ccccc4)N3C2=O)C=C2c3cccc4[nH]cc(c34)C[C@H]21 [Ergotamine]	127%	–
NCC(CC(=O)O)c1ccc(Cl)cc1 (racemic) [Baclofen (R,S)]	92.6%	–
NCC(CC(=O)O)c1ccc(Cl)cc1 (racemic) [(±)-Baclofen]	108%	–
N[C@@H]1C[C@H]1c1ccccc1 [Tranylcypromine hydrochloride]	103 ± 5.1%	–
[O-][n+]1ccccc1[S-].[O-][n+]1ccccc1[S-].[Zn+2]	89.8%	–
NC(CCCCCP(=O)(O)O)C(=O)O (racemic) [(±)-2-Amino-7-phosphonoheptanoic acid]	105%	–
C[C@]12C[C@H]3S[C@H]3C[C@@H]1CC[C@@H]1[C@@H]2CC[C@]2(C)[C@@H](O)CC[C@@H]12 [Epitiostanol]	97.8%	–
COP(=O)(OC)C(O)C(Cl)(Cl)Cl (configuration not stated)	115%	–
COP(=O)(OC)C(O)C(Cl)(Cl)Cl (configuration not stated) [Trichlorfon]	94.3%	–
CCCC(C)C1(CC)C(=O)NC(=O)NC1=O (configuration not stated) [Pentobarbital]	110%	–
c1ccc(Cn2ccnc2)cc1	101%	–
C=CCN1CC[C@]23c4c5ccc(O)c4O[C@H]2C(=O)CC[C@@]3(O)[C@H]1C5	108%	–
C=CCN1CC[C@]23c4c5ccc(O)c4O[C@H]2C(=O)CC[C@@]3(O)[C@H]1C5 [Naloxone hydrochloride]	102 ± 8%	–
C=CCN1CC[C@]23c4c5ccc(O)c4O[C@H]2C(=O)CC[C@@]3(O)[C@H]1C5 [Naloxone]	111%	–
CP(=O)(O)C1=CCNCC1	114%	–
C[C@@H]1O[C@H](C[N+](C)(C)C)C[C@H]1O (racemic) [(±)-Muscarine chloride]	116%	–
O=c1cccc2n1CC1CC2CN(CCCN=C=S)C1 (configuration not stated)	–	89.7%
NC(=O)c1cc(N2CC2)c([N+](=O)[O-])cc1[N+](=O)[O-]	92.4%	–
O=c1cccc2n1CC1CC2CN(c2nc(N3CCCC3)nc(N3CCCC3)n2)C1 (configuration not stated)	–	90.9%

Structure (SMILES)	cell viability (compound concentration: 3 uM)	cell viability [1]
NC(=O)CI [Iodoacetamide]	97.7%	–
C[C@]12CCC(=O)C=C1C=C[C@@H]1[C@@H]2CC[C@@]2(C)[C@H]1CC[C@@]2(O)CCC(=O)O [Canrenoic acid potassium salt]	90.3%	–
C[C@]12CCC(=O)C=C1C=C[C@@H]1[C@@H]2CC[C@@]2(C)[C@H]1CC[C@@]2(O)CCC(=O)O	102%	–
C(#CCN1CCCC1)CN1CCCC1 [Tremorine dihydrochloride]	83.5%	–
CC[C@@H](C(=O)[C@@H](C)[C@@H](O)[C@H](C)[C@@H]1O[C@@H]([C@@H](CC)C(=O)O)CC[C@@H]1C)[C@H]1O[C@]2(C=C[C@@H](O)[C@]3(CC[C@@](C)([C@H]4CC[C@](O)(CC)[C@H](C)O4)O3)O2)[C@H](C)C[C@@H]1C	73.5%	–
COc1ccc2[nH]c3c(c2c1)CCNC3 [6-Methoxy-1,2,3,4-tetrahydro-9H-pyrido[3,4b] indole]	107%	–
CS(=O)(=O)Nc1ccc(Cc2noc(-c3ccc4[nH]cc(CCN)c4c3)n2)cc1	101%	–
Cc1cccc(C)c1NC(=O)CN1CCCC1=O [Nefiracetam]	97.3%	–
CN1CC[C@]2(CCN3CCc4c(oc5ccccc45)[C@@H]3C2)N(C)C1=O	98.6%	–
CC(C)[C@H]1C(=O)N2CCC[C@H]2[C@]2(O)O[C@](NC(=O)[C@@H]3C=C4c5cccc6[nH]cc(c56)C[C@H]4N(C)C3)(C(C)C)C(=O)N12 [Ergocornine]	–	99%
N#CC(C#N)=Cc1ccc(O)c(O)c1 [Tyrphostin 23]	109%	–
CC(=O)N1C[C@@H]2C[C@H](C1)c1cccc(=O)n1C2	–	93.5%
S=C=NCc1ccccc1	78.6 ± 15%	–
COP(=O)(OC)OC=C(Cl)Cl	103 ± 12%	–
c1ccc2c(c1)Nc1ccccc1S2	102%	–
C[C@]12CC[C@H]3[C@@H](CCC4=CC(=O)CC[C@@]43C)[C@@H]1CC[C@@H]2O	117%	–
C[C@]12CC[C@H]3[C@@H](CCC4=CC(=O)CC[C@@]43C)[C@@H]1CC[C@@H]2O [Testosterone]	101%	–
N=C(NCCC[C@H](N)C(=O)O)N[N+](=O)[O-] [NG-Nitro-L-arginine]	116%	–
Cc1ccc(/N=C/N(C)/C=N/c2ccc(C)cc2C)c(C)c1	102%	–
CCCN(CCC)C1Cc2cc(OC)c(OC)cc2C1	118%	–
O=c1c2ccccc2[se]n1-c1ccccc1 [Ebselen]	110 ± 2.5%	–
O=c1c2ccccc2[se]n1-c1ccccc1	105 ± 2.7%	–
CC(C)NC(C)Cc1ccc(I)cc1 (configuration not stated) [Iofetamine hydrochloride]	94%	–
Nc1ncnc2c1ncn2[C@@H]1O[C@H](CI)[C@@H](O)[C@H]1O [5'-Iodo-5'-deoxyadenosine]	–	91.4%
COc1cc2c(cc1O)C[C@H]1c3c(cc(OC)c(O)c3-2)CCN1C [Isoboldine]	–	98.4%
O=c1ccc2cc(O[C@@H]3O[C@H](CO)[C@@H](O)[C@H](O)[C@H]3O)c(O)cc2o1 [Esculin]	–	76.7%

Full records as entered above. Order of values: cell viability (compound concentration: 3 uM)	cell viability [1]
c1ccc2c(c1)Nc1ccccc1S2 is listed as 102%	–
C[C@]12CC[C@H]3[C@@H](CCC4=CC(=O)CC[C@@]43C)[C@@H]1CC[C@@H]2O is listed as 117%	–

Next records follow:

Structure (SMILES)	cell viability (compound concentration: 3 uM)	cell viability [1]
O=C1c2ccccc2-c2cccc3cccc1c23	87.3%	–
NCC(O)c1ccc(O)cc1 (configuration not stated)	108%	–
COC(=O)N1CCN(C(=O)Cc2ccc(Cl)c(Cl)c2)C(CN2CCCC2)C1 (configuration not stated)	96.3% and 106%	–
CN1Cc2c(ccc3c2OCO3)[C@@H]2[C@H]1c1cc3c(cc1C[C@@H]2O)OCO3 [(+)-Chelidonine monohydrate]	–	62.8%
CN1CCc2cccc(Cl)c2CC1	119%	–
COC(=O)[C@@H](N)CCCNC(=N)N[N+](=O)[O-] [NG-Nitro-L-arginine methyl ester hydrochloride]	109%	–
CN[C@@H](C)[C@H](O)c1ccccc1 [Ephedrine]	–	93.2%
CC[C@]1(O)CC[C@H]2[C@@H]3CCC4=CCCC[C@@H]4[C@H]3CC[C@@]21C [Ethylestrenol]	98.4%	–
CC(=O)O[C@H]1C[C@@H]2CC[C@@H]3[C@H](CC[C@@]4(C)[C@H]3C[C@H]([N+]3(C)CCCCC3)[C@@H]4OC(C)=O)[C@@]2(C)C[C@@H]1[N+]1(C)CCCCC1	106%	–
CC(=O)O[C@H]1C[C@@H]2CC[C@@H]3[C@H](CC[C@@]4(C)[C@H]3C[C@H]([N+]3(C)CCCCC3)[C@@H]4OC(C)=O)[C@@]2(C)C[C@@H]1[N+]1(C)CCCCC1 [Pancuronium bromide]	86.2 ± 19%	–
CC(=O)O[C@H]1C[C@@H]2CC[C@@H]3[C@H](CC[C@@]4(C)[C@H]3C[C@H]([N+]3(C)CCCCC3)[C@@H]4OC(C)=O)[C@@]2(C)C[C@@H]1[N+]1(C)CCCCC1 [Pancuronium]	98.3 ± 5.5%	–
CCCC[N+]1(C)[C@H]2CC(OC(=O)C(CO)c3ccccc3)C[C@H]1[C@H]1O[C@H]12 (some centres not stated) [Scopolamine N-butyl]	96.9%	–
CC1=C2C3OC(=O)C(C)C3CCC2(C)C=CC1=O (configuration not stated) [a-Santonin]	–	104%
CC1C=CC=CCCC=CC=CC=CC=CC(OC2OC(C)C(O)C(N)C2O)CC2OC(O)(CC(O)C(O)CCC(O)CC(O)CC(O)CC(=O)OC(C)C(C)C1O)CC(O)C2C(=O)O (configuration not stated)	111%	–
CC1C=CC=CCCC=CC=CC=CC=CC(OC2OC(C)C(O)C(N)C2O)CC2OC(O)(CC(O)C(O)CCC(O)CC(O)CC(O)CC(=O)OC(C)C(C)C1O)CC(O)C2C(=O)O (configuration not stated) [Nystatin]	119%	–
CC(N)C(O)c1ccc(O)c(O)c1 (single isomer, unassigned; (-)) [(-)-alpha-Methylnorepinephrine]	104%	–
CC(C)[C@@]1(NC(=O)[C@@H]2C=C3c4cccc5[nH]cc(c45)C[C@H]3N(C)C2)O[C@@]2(O)[C@@H]3CCCN3C(=O)[C@H](Cc3ccccc3)N2C1=O [Ergocristine]	–	104%
COc1ccc2c(c1)[C@@]13CCCC[C@H]1[C@@H](C2)NCC3 [3-Methoxy-morphanin hydrochloride]	113%	–
COc1cc2c(c(OC)c1OC)-c1ccc(OC)c(=O)cc1[C@@H](NC(C)=O)CC2 [Colchicine]	65.5 ± 7.5%	92.6%
COc1cc2c(c(OC)c1OC)-c1ccc(OC)c(=O)cc1[C@@H](NC(C)=O)CC2	77.9 ± 1.5%	–
CC[C@@H](CO)NC(=O)[C@@H]1C=C2c3cccc4c3c(cn4C)C[C@H]2N(C)C1 [Methysergide]	106%	–
CC[C@@H](CO)NC(=O)[C@@H]1C=C2c3cccc4c3c(cn4C)C[C@H]2N(C)C1	104%	–
CC[C@@H](CO)NC(=O)[C@@H]1C=C2c3cccc4c3c(cn4C)C[C@H]2N(C)C1 [Methysergide maleate]	117%	–
N#C[C@H](O[C@@H]1O[C@H](CO[C@@H]2O[C@H](CO)[C@@H](O)[C@H](O)[C@H]2O)[C@@H](O)[C@H](O)[C@H]1O)c1ccccc1	91.9%	–

Quoted from the results shown (2 entries):
Structure (SMILES)	cell viability (compound concentration: 3 uM)	cell viability [1]
CC(N)C(O)c1ccc(O)c(O)c1 (single isomer, unassigned; (-)) [(-)-alpha-Methylnorepinephrine]	104%	–
CC(C)[C@@]1(NC(=O)[C@@H]2C=C3c4cccc5[nH]cc(c45)C[C@H]3N(C)C2)O[C@@]2(O)[C@@H]3CCCN3C(=O)[C@H](Cc3ccccc3)N2C1=O [Ergocristine]	–	104%
